Reference: PubChem BioAssay AID1159578 (Peter MacCallum Cancer Centre, 2015)
The deposit covers about 18,000 reagents; this is a random part of them. About 1,030 of all reagents (5.7%) were called active. 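Inactive calls also include pools with fewer than 3300 nuclei, whose migration was not assessed.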 Raw values vary from plate to plate and are shown uncorrected.

Aim: 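siRNA pools altering how lymphatic endothelial cells close a scratch wound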 (primary screen)
System: human lymphatic endothelial cells
Reagent: siRNA pool against human genes, 40 nM
Duration: 48 h after transfection
Measurement: 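Cells stained with dye and imaged after a scratch; covered wound area and nuclei counted, duplicates averaged, migration set against mock wells and turned into a robust z-score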
Direction: migration robust z-score: higher = faster migration into the scratch; migration relative to mock: higher = more scratch area covered than mock; nuclei per well: higher = more cells in the well
Hit rule: 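Pools averaging fewer than 3300 nuclei are never called; remaining pools count as changed when migration robust z lies outside -2 to 2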
Meaning of the calls: active = migration changed; inactive = no migration change, or too few cells

gene symbol	migration robust z-score	migration class with cell-count check	migration relative to mock	nuclei per well, duplicate mean	outcome
CENPO	-2.42	migration z below -2; enough cells	0.26	6157	active
FHDC1	1.4	migration z between -2 and 2; enough cells	1.25	6618	inactive
LETMD1	0.6	migration z between -2 and 2; enough cells	1.04	6243	inactive
RRAGA	-1.17	migration z between -2 and 2; enough cells	0.58	5926	inactive
CT47A5	-1.4	migration z between -2 and 2; enough cells	0.52	6252	inactive
GSC	-0.67	migration z between -2 and 2; enough cells	0.71	6102	inactive
PALMD	-0.8	migration z between -2 and 2; enough cells	0.68	6566	inactive
OR51B2	-0.34	migration z between -2 and 2; enough cells	0.8	5720	inactive
ABRA	0.1	migration z between -2 and 2; enough cells	0.82	5528	inactive
CCDC32	0.19	migration z between -2 and 2; enough cells	0.94	5746	inactive
CSAD	-1.38	migration z between -2 and 2; enough cells	0.52	6354	inactive
IARS1	1.22	migration z between -2 and 2; enough cells	1.04	5763	inactive
RFX3	0.03	migration z between -2 and 2; enough cells	0.81	4044	inactive
KCTD3	0.16	migration z between -2 and 2; enough cells	0.84	5170	inactive
RPUSD4	-0.88	migration z between -2 and 2; enough cells	0.66	4994	inactive
WDHD1	-1.5	migration z between -2 and 2; enough cells	0.5	5190	inactive
GJA9	-0.53	migration z between -2 and 2; enough cells	0.74	3566	inactive
NR1H4	-0.05	migration z between -2 and 2; enough cells	0.8	4316	inactive
NCR3	0.94	migration z between -2 and 2; enough cells	0.98	6064	inactive
ELP3	0.08	migration z between -2 and 2; enough cells	0.82	6380	inactive
C3orf70	0.3	migration z between -2 and 2; enough cells	0.96	7310	inactive
SAXO4	1.1	migration z between -2 and 2; enough cells	1.17	5283	inactive
TSTD2	-0.55	migration z between -2 and 2; enough cells	0.74	5972	inactive
P2RY8	-0.47	migration z between -2 and 2; enough cells	0.72	5490	inactive
MTERF3	3.16	migration z above 2; enough cells	1.7	6409	active
LAMA4	-3.66	migration z below -2; enough cells	0.1	3759	active
ATN1	-1.12	migration z between -2 and 2; enough cells	0.59	6199	inactive
POU4F2	1.38	migration z between -2 and 2; enough cells	1.07	7378	inactive
SLC38A12	0.1	migration z between -2 and 2; enough cells	0.92	6502	inactive
FXYD3	0.55	migration z between -2 and 2; enough cells	0.91	3938	inactive
CCL4L1	-0.67	migration z between -2 and 2; enough cells	0.71	5032	inactive
ZCCHC9	-0.8	migration z between -2 and 2; enough cells	0.68	5816	inactive
TGOLN2	0.44	migration z between -2 and 2; enough cells	1	5891	inactive
TMEM174	-0.73	migration z between -2 and 2; enough cells	0.7	6922	inactive
SMAD7	-0.18	migration z between -2 and 2; enough cells	0.77	5890	inactive
HLA-DRB1	0.88	migration z between -2 and 2; enough cells	0.98	8168	inactive
PRDM9	0.68	migration z between -2 and 2; enough cells	0.94	4642	inactive
PRAMEF6	-0.53	migration z between -2 and 2; enough cells	0.74	5040	inactive

Part of the list above, showing only “migration relative to mock”:
OR51B2: 0.8
ABRA: 0.82
CCDC32: 0.94
CSAD: 0.52

Continued:
gene symbol	migration robust z-score	migration class with cell-count check	migration relative to mock	nuclei per well, duplicate mean	outcome
SMG1	0.16	migration z between -2 and 2; enough cells	0.84	4842	inactive
PCGF6	-0.29	migration z between -2 and 2; enough cells	0.75	5405	inactive
ARHGDIA	0.24	migration z between -2 and 2; enough cells	0.85	6006	inactive
OXSR1	0.24	migration z between -2 and 2; enough cells	0.85	5006	inactive
SNRPD3	-1.68	migration z between -2 and 2; enough cells	0.45	5496	inactive
NBL1	0.27	migration z between -2 and 2; enough cells	0.96	5370	inactive
TYR	0.28	migration z between -2 and 2; enough cells	0.86	5545	inactive
CARHSP1	-0.64	migration z between -2 and 2; enough cells	0.72	5381	inactive
PRSS45P	0.31	migration z between -2 and 2; enough cells	0.86	5234	inactive
KLF4	0.6	migration z between -2 and 2; enough cells	0.92	4966	inactive
SEMG2	1.88	migration z between -2 and 2; enough cells	1.38	4910	inactive
CRYBA4	0.26	migration z between -2 and 2; enough cells	0.96	5758	inactive
HTR7	-0.68	migration z between -2 and 2; enough cells	0.68	5554	inactive
TBC1D13	-1.25	migration z between -2 and 2; enough cells	0.56	5551	inactive
AQP1	-0.91	migration z between -2 and 2; enough cells	0.63	5539	inactive
CEMP1	1.04	migration z between -2 and 2; enough cells	1.16	6272	inactive
DDIT3	-1.71	migration z between -2 and 2; enough cells	0.48	4762	inactive
ERICH3	-0.96	migration z between -2 and 2; enough cells	0.64	6616	inactive
TSPAN9	0.83	migration z between -2 and 2; enough cells	1.1	6628	inactive
